The match of structure and compound is tentative.
Molecular target: human GPR17 short isoform (Homo sapiens (Human), UniProt Q13304)
Experiment: GPR17 cAMP assay (hGPR17 cAMP, antagonist mode against EC80 of MDL29,951)
Conditions: read-out: hGPR17 cAMP IC50; CHO-K1 cells stably expressing human GPR17 short isoform; EC80 of agonist MDL29,951; forskolin 15 μM
Experimental: GPR17 cAMP Assay Protocol:
CHO-K1 cells stably expressing vector containing untagged human GPR17 short isoform (Roche) were cultured at 37° C./5% CO2 in DMEM (Dulbecco's Modified Eagle Medium):F-12 (1:1) supplemented with 10% foetal bovine serum and 400 μg/ml Geneticin.
Changes in intracellular cyclic adenosine monophosphate (cAMP) levels were quantified using the Nano-TRF Detection Assay kit (Roche Diagnostics, Cat. No. 05214386001). This assay allows for direct cAMP quantification in a homogeneous solution, cAMP is detected based on time-resolved fluorescence energy transfer (TR-FRET) and competitive binding of ruthenylated cAMP and endogenous cAMP to an anti-cAMP monoclonal antibody labeled with AlexaFluor-700. The Ruthenium complex serves as the FRET donor and transfers energy to AlexaFluor-700. The FRET signal is inversely proportional to the cAMP concentration.
CHO-GPR17S cells were detached with Accutase and resuspended in assay buffer consisting of Hank's Balanced Salt Solution (HBSS), 10 mM HEPES (4-(2-hydroxyethyl) piperazine-1-ethanesulfonic acid solution) and 0.1% bovine serum albumin (pH 7.4). The cells were seeded in black 384-well plates (Corning) at a density of 10,000 cells/20 μl assay buffer until the addition of compounds. […]
Cellular cAMP was measured using a Paradigm reader (Molecular Devices). […]

Chains of the proteins cited; added tags and fusions are not shown. Residues count along the entry.
UniProt Q13304, 29-367 limits assumed: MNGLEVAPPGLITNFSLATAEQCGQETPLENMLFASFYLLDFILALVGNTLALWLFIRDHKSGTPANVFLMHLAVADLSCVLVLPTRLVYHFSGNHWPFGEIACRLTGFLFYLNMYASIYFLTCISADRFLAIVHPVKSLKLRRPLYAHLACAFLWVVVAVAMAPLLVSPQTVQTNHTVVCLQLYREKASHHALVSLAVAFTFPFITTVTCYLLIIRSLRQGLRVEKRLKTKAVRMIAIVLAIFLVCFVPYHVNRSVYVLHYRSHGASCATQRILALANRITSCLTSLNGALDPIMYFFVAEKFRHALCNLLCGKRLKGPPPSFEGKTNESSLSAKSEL

| SMILES | IC50 |
| --- | --- |
| COc1nc(NS(=O)(=O)c2c[nH]c3cc(C(F)F)ccc23)nc(OC)c1OC(F)F | 29 nM |
| COc1nc(NS(=O)(=O)c2c[nH]c3cc(Cl)ccc23)nc(F)c1OCC(F)F | 142 nM |

Source: patent publication US20240025883A1, “PYRIMIDIN-2-YL SULFONAMIDE DERIVATIVES” (Hoffmann-La Roche Inc., priority 2021, published 2024)
